# PubChem BioAssay AID540276 (National Center for Advancing Translational Sciences (NCATS), 2011)
# The campaign covered roughly 300,000 compounds. About 5,400 (1.8%) were called active. The shares of active, inactive and inconclusive entries below differ from those in the screen. The call rests on the fitted dose curve; tested in HEK293 cells. Potencies beside an inconclusive call are fits to weak or partial responses and may not hold up.
# Test: qHTS for inhibitors of binding or entry into cells for Marburg Virus
# Conditions: Marburg virus pseudotyped entry inhibition, cell reporter; series mostly up to 37.8 µM
# Potency means the concentration at half of the fitted maximal effect.
row,SMILES,Potency
1,O=C(NNC(=O)c1ccccc1F)c1ccco1,"inconclusive: 15.8 µM [activator, single point]"
2,O=C1c2ccccc2NC(c2ccc(F)cc2)N1Cc1ccco1 (stereo not drawn),"inconclusive: 1.78 µM [inhibitor, full curve, poor fit]"
3,Cc1c(CCC(=O)O)c(=O)oc2cc3oc4c(c3cc12)CCCC4,"inconclusive: 15.8 µM [inhibitor, partial curve, poor fit]"
4,Cc1ccccc1S(=O)Cc1ccc(C(=O)NCc2ccccc2Cl)o1 (stereo not drawn),inactive
5,O=C(COC(=O)COc1cccc2ccccc12)NCC(F)(F)F,"inconclusive: 15.8 µM [activator, single point]"
6,CC(=O)N1CCN(S(=O)(=O)c2cccc(C(=O)NC3CCCc4ccccc43)c2)CC1 (stereo not drawn),"inconclusive: 1.26 µM [inhibitor, partial curve, poor fit]"
7,Nc1nc(Sc2ccc(C(F)(F)F)cc2[N+](=O)[O-])n[nH]1,"inconclusive: 15.8 µM [inhibitor, single point]"
8,CCOc1ccc(N/C(N)=N/c2nc(CSc3nnc(C)s3)cc(=O)[nH]2)cc1,"inconclusive: 0.366 µM [inhibitor, full curve, poor fit]"
9,O=C(NCCc1cccs1)c1ccc(Cn2c(SCc3cccc(F)c3)nc3cccnc32)cc1,"inconclusive: 35.5 µM [inhibitor, single point]"
10,COc1ccc(N2CCN(CCCN)CC2)cc1,"inconclusive: 35.5 µM [inhibitor, single point]"
11,CCCCOC(=O)c1ccc(NC(=O)c2ccc3c(c2)CCN3S(C)(=O)=O)cc1,"inconclusive: 8.91 µM [activator, partial curve, poor fit]"
12,COc1cc2c(cc1OC)CN(CC(=O)Nc1ccc(C#N)cc1)CC2,"inconclusive: 25.1 µM [inhibitor, single point]"
13,Cc1cc(C)n2ncc(C(=O)NCc3ccccc3)c2n1,"inconclusive: 1.26 µM [inhibitor, partial curve, poor fit]"
14,CCC(C)(C)n1nnnc1C(c1ccncc1)N1CCN(c2cccc(OC)c2)CC1 (stereo not drawn),"inconclusive: 4.61 µM [inhibitor, partial curve]"
15,Cc1ccc(OCC(=O)NNC(=O)C(C)Sc2ncnc3sc(C)c(C)c23)cc1 (stereo not drawn),inactive
16,Clc1ccc2nc(-c3ccccc3)cn2c1,"inconclusive: 7.08 µM [inhibitor, partial curve, poor fit]"
17,CCNC(=S)NS(=O)(=O)c1ccc(C)cc1,inactive
18,Cc1ccc(CSc2nnc(SCC(=O)N/N=C/C=C/c3ccccc3[N+](=O)[O-])s2)cc1,"inconclusive: 35.5 µM [inhibitor, single point]"
19,CCc1ccc(C(=O)Cn2ccsc2=N)cc1,"inconclusive: 7.94 µM [inhibitor, partial curve, poor fit]"
20,CCOc1ccc2ccc(OCC)c(/C=N/n3cnnc3)c2c1,inactive
21,CC(C)(C)n1nnnc1C(c1ccccc1F)N(Cc1ccco1)CC1CCCO1 (stereo not drawn),"inconclusive: 10.3 µM [inhibitor, partial curve, poor fit]"
22,Cc1ccc(NC(=O)c2ccc(OCc3c(C)noc3C)cc2)cc1C,active: 10 µM
23,CC(C)(C)C(=O)Nc1sc2c(c1-c1nc3ccccc3[nH]1)CCCC2,"inconclusive: 18.3 µM [inhibitor, partial curve, poor fit]"

row,SMILES,Potency
1,CN(C)Cc1nc2ccccc2c(=O)n1Cc1nc(C(C)(C)C)cs1,"inconclusive: 10 µM [inhibitor, partial curve, poor fit]"
2,S=C(c1cn(CCOc2cccc3ccccc23)c2ccccc12)N1CCCC1,inactive
3,CC(=O)NCCOc1ccc(C(=O)O)cc1,inactive
4,COc1cccc(C(=O)OC(C)CN2CCCC2)c1 (stereo not drawn),inactive
5,CCC(=O)Nc1ccc(-c2nnc(-c3ccccc3)o2)cc1,"inconclusive: 7.08 µM [inhibitor, partial curve, poor fit]"
6,Clc1cccc(CNCCCSc2nnnn2-c2ccccc2)c1,"inconclusive: 1.41 µM [inhibitor, partial curve, poor fit]"
7,CC1(C)CC(=O)C=C(NNC(=O)OC(C)(C)C)C1,"inconclusive: 12.6 µM [activator, partial curve, poor fit]"
8,Cc1cc(Cl)c(OCCCNCc2ccccc2)c(Br)c1,"inconclusive: 13 µM [inhibitor, partial curve, poor fit]"
9,O=C(O)/C=C\C(=O)NNC(=O)c1cc(-c2ccccc2)n[nH]1,inactive
10,CC1CC(C)CN(Cc2nc3c(c(=O)n(C)c(=O)n3C)n2CCN2CCOCC2)C1 (stereo not drawn),"inconclusive: 0.562 µM [inhibitor, full curve, poor fit]"
11,COC(=O)c1sc2nc3c(cc2c1N)CCCC3,"inconclusive: 3.16 µM [inhibitor, full curve, poor fit]"
12,COc1cccc(NC(=O)c2ccc(-c3ccc([N+](=O)[O-])cc3)o2)c1,"inconclusive: 35.5 µM [inhibitor, single point]"
13,COc1cc(OC)cc(C(=O)NNC(=O)c2ccccn2)c1,"inconclusive: 1.12 µM [inhibitor, full curve, poor fit]"
14,O=C(NC(=O)N1CCN(c2ccc(F)cc2)CC1)c1ccccc1,"inconclusive: 6.51 µM [inhibitor, single point]"
15,Fc1cccc(Cc2noc(CN3CCCCC3CCc3ccccn3)n2)c1 (stereo not drawn),"inconclusive: 10 µM [inhibitor, partial curve]"
16,O=C(COc1ccccc1)Nc1nnc(-c2ccco2)o1,"inconclusive: 2.82 µM [activator, partial curve]"
17,CCn1c(=N)n(CC(=O)OC)c2ccccc21,inactive
18,CC(C(=O)NC(=O)NC1CCCCC1)N(C)CC(=O)Nc1ccc(F)c(F)c1F (stereo not drawn),"inconclusive: 14.1 µM [inhibitor, partial curve, poor fit]"
19,O=C(NCc1ccccc1Cl)C1CCN(S(=O)(=O)N2CCCCC2)CC1,inactive
20,CCOC(=O)C1CCCN(c2nc3ccccc3nc2C(C#N)C(=O)OC(C)C)C1 (stereo not drawn),"inconclusive: 3.98 µM [inhibitor, full curve]"
21,Cc1ccc(S(=O)(=O)N2CCCC(C(=O)NCC3CCCO3)C2)cc1 (stereo not drawn),inactive
22,CCn1ccnc1CN1CCCC(C(=O)c2cc(Cl)ccc2OC)C1 (stereo not drawn),"inconclusive: 25.1 µM [inhibitor, single point]"
23,COc1cccc(CN(C(=O)Cc2c[nH]c3ccccc23)C(C(=O)NC2CCCCC2)c2ccc(C)o2)c1 (stereo not drawn),"inconclusive: 25.1 µM [inhibitor, single point]"

row,SMILES,Potency
1,Fc1ccccc1N1CCN(C(c2ccccn2)c2nnnn2C2CCCCC2)CC1 (stereo not drawn),"inconclusive: 10.3 µM [inhibitor, partial curve, poor fit]"
2,CCCn1c2ccc(C)cc2c2nnc(SCCN3CCOCC3)nc21,"inconclusive: 3.55 µM [inhibitor, single point]"
3,CCCCN(CC)CCCNC(=O)c1cc2cc3ccc(OC)cc3nc2o1,"inconclusive: 15.8 µM [inhibitor, single point]"
4,COc1ccc(NC(=O)/C(C#N)=C/c2cccnc2)c(OC)c1,inactive
5,Oc1cccc(/C=N/NC(=S)Nc2cccnc2)c1O,"inconclusive: 10 µM [inhibitor, partial curve, poor fit]"
6,Cc1ccc(SCC(=O)OCC(=O)N(C)CC(=O)Nc2ccccc2Cl)cc1,"inconclusive: 35.5 µM [activator, single point]"
7,CSc1ncc(Cl)c(C(=O)Nc2c(C(=O)c3ccc(Cl)cc3)oc3ccccc23)n1,inactive
8,O=C(Nc1ccc(N2CCOCC2)c(Cl)c1)c1cccnc1,"inconclusive: 2.51 µM [activator, full curve]"
9,CCCCNC(=O)CSc1nc2cc3c(cc2c(=O)n1CCC(=O)NCCc1ccc(OC)c(OC)c1)OCO3,"inconclusive: 15.8 µM [inhibitor, single point]"
10,COC(=O)Cc1ccc(NC(=S)NCC(C)C)cc1,inactive
11,O=S(=O)(c1ccc(Cl)c(Cl)c1)N1CCc2nc3ccccc3n2CC1,"inconclusive: 0.316 µM [inhibitor, partial curve, poor fit]"
12,O=C(COc1ccccc1Cl)c1ccc2c(c1)CCCC2,"inconclusive: 0.112 µM [activator, full curve, poor fit]"
13,Cc1ccc(C(=O)Nc2ccc3c(c2)OCO3)cc1,"inconclusive: 6.51 µM [inhibitor, full curve]"
14,CC(C)(C)c1ccc(/C=C/C(=O)NC2=NCCS2)cc1,inactive
15,NC(=O)C12C(=O)NC(=O)C1(C(=O)O)C21CCCC1 (stereo not drawn),inactive
16,N/C(=N\OC(=O)C1CCCCC1)c1cccnc1,inactive
17,CC(=O)Nc1cccc(NC(=O)CSc2nnnn2Cc2ccccc2)c1,"inconclusive: 3.16 µM [inhibitor, partial curve, poor fit]"
18,CCCN1CCC(NC(=O)Nc2cccc3ccccc23)CC1,"inconclusive: 7.08 µM [inhibitor, partial curve, poor fit]"
19,COc1ccc(CSc2nnnn2-c2ccc(O)cc2)cc1F,"inconclusive: 2.51 µM [inhibitor, partial curve, poor fit]"
20,Cn1c(=O)c2c(nc(N3CCCCCC3)n2Cc2cccc3ccccc23)n(C)c1=O,"inconclusive: 3.16 µM [inhibitor, full curve, poor fit]"
21,CC(C)Sc1nc2c(c(=O)[nH]c(=O)n2C)n1CCc1ccccc1,inactive
22,Cc1cnc(C(=O)N2CCCC(C(=O)c3ccc(C(C)(C)C)cc3)C2)cn1 (stereo not drawn),"inconclusive: 35.5 µM [inhibitor, single point]"

# For convenience, 2 of the compounds above:
row,SMILES,Potency
20,Cn1c(=O)c2c(nc(N3CCCCCC3)n2Cc2cccc3ccccc23)n(C)c1=O,"inconclusive: 3.16 µM [inhibitor, full curve, poor fit]"
21,CC(C)Sc1nc2c(c(=O)[nH]c(=O)n2C)n1CCc1ccccc1,inactive

# Part of the list above in another layout:
row	SMILES	Potency
5	Oc1cccc(/C=N/NC(=S)Nc2cccnc2)c1O	inconclusive: 10 µM [inhibitor, partial curve, poor fit]
6	Cc1ccc(SCC(=O)OCC(=O)N(C)CC(=O)Nc2ccccc2Cl)cc1	inconclusive: 35.5 µM [activator, single point]
7	CSc1ncc(Cl)c(C(=O)Nc2c(C(=O)c3ccc(Cl)cc3)oc3ccccc23)n1	inactive
